From PMC7819943, “Rice protein-binding microarrays: a tool to detect cis-acting elements near promoter regions in rice”
The other results are listed elsewhere or left out.

Sequences of proteins named here, by UniProt entry; tags and fusion partners are left off.
UniProt Q0JBA9, entry or part of it: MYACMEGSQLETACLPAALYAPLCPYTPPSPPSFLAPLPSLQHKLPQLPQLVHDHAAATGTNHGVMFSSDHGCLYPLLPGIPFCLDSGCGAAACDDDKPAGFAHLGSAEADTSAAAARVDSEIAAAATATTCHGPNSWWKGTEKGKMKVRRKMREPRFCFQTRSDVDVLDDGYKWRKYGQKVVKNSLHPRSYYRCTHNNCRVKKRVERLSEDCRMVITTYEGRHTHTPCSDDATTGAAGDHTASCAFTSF

These sequences were tested against OsWRKY34 (Oryza sativa, UniProt Q0JBA9 1-250) (assay: protein-binding microarray (RPBM); PBS, 2% BSA, 51.3 ng/ul salmon testes DNA, 50 uM zinc acetate, 200 nM TF, 25 C, 1 h; high values mean tight binding). Conditions: protein: recombinant; tags: N-terminal polyhistidine and DsRed monomer fusion (pET32a); label: CyDye5-dUTP incorporated in the synthesized complementary strand; 3' TTTTT single-stranded linker to array surface; dsDNA, one strand shown.
How it was run: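 Transcription factors were each fused at the N-terminus to a polyhistidine tag plus DsRed and expressed in E. coli BL21-CodonPlus before Ni–NTA purification. Binding to a double-stranded custom Agilent array was carried out with 200 nM protein at 25 °C for 1 h in PBS, 2% BSA, salmon testes DNA and 50 µM zinc acetate. The binding signal is per-feature fluorescence intensity, in arbitrary units, on an Axon 4000B scanner.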
For “ATCTTTTTATCGTTTCATTGATTGATGACGACTCCAAGTTCGGAGTCACCTAGTGCAG”, the binding signal was 8600 fluorescence intensity (a.u.). For “AATTTAGGCTATTTTGGCTTCAATCCAAACACAATTTTTCCGGAGTCACCTAGTGCAG”, the binding signal was 10100 fluorescence intensity (a.u.). “GGAGGGAGGGATAGCGTAGAGGGAGAGGGAACAGGGGAGGCGGAGTCACCTAGTGCAG” was tested, and the binding signal was 8640 fluorescence intensity (a.u.). “GTGTATTTGTTTCTTTGTCAGCTTGTACATGAATACCGGCCGGAGTCACCTAGTGCAG” was tested, and the binding signal was 10800 fluorescence intensity (a.u.). In the case of “ACAATTGCCTATTATCTGGTCCCACATGTCATGCACACATCGGAGTCACCTAGTGCAG”, the binding signal is reported as 8620 fluorescence intensity (a.u.). “ATCCTCGGCCTCCGTCTTCCCTCGGCAAGGTTTTCATCCACGGAGTCACCTAGTGCAG” was tested, and the binding signal was 8740 fluorescence intensity (a.u.). With “GATTTATTGTACTATAATATATCACATCTAGTTGGTTTTTCGGAGTCACCTAGTGCAG” the binding signal was 8130 fluorescence intensity (a.u.). For “TCTCTCTTCTCTTCTCTCATCACTCACCATCTTCTTGTCTCGGAGTCACCTAGTGCAG”, the binding signal was 8370 fluorescence intensity (a.u.). In the case of “CCTCTCATCGCCGCGGTTTCTTTCCCGTTGTTGTGAAAAGCGGAGTCACCTAGTGCAG”, the binding signal is reported as 9570 fluorescence intensity (a.u.). “CCGGCTCCGGCTCATCTCCACCTCCTCCCGCCGCGCCAGCCGGAGTCACCTAGTGCAG” was tested, and the binding signal was 8300 fluorescence intensity (a.u.). In the case of “TATTTCACCACATCGTTTTTTTCTTTTTGTCAAAGGGCATCGGAGTCACCTAGTGCAG”, the binding signal is reported as 8680 fluorescence intensity (a.u.). In the case of “AAGTGATGCAGCGAAAGGAATTGGTGGGGAGGAGAAACTGCGGAGTCACCTAGTGCAG”, the binding signal is reported as 8140 fluorescence intensity (a.u.). In the case of “CGCACGGCCGCTACATGCCCACGTCGTTCTCGCCTCGCTACGGAGTCACCTAGTGCAG”, the binding signal is reported as 8780 fluorescence intensity (a.u.). With “CTGATGGTGTTGGTGATGGTGGTGCGGGTGCGGCAGTTGACGGAGTCACCTAGTGCAG” the binding signal was 13200 fluorescence intensity (a.u.). With “GCCGGTGGCGCATGGTGATCTTTACTCCCGGTTAGTGTTACGGAGTCACCTAGTGCAG” the binding signal was 8280 fluorescence intensity (a.u.). In the case of “GAACGGTAGAATGATTATTGCTCCTTCAGTTTTCGAGTAACGGAGTCACCTAGTGCAG”, the binding signal is reported as 9810 fluorescence intensity (a.u.). In the case of “AACTAATCTTCCTCTCTCATCTCAGTTCTGTTCCTTGTTTCGGAGTCACCTAGTGCAG”, the binding signal is reported as 9230 fluorescence intensity (a.u.). For “AGTATGCTTTTGTGTTGCAACTTGTTTATACATATACTCCCGGAGTCACCTAGTGCAG”, the binding signal was 14700 fluorescence intensity (a.u.). “CTCCCTTTTCCTTTACTATTTCTTTTCTCTTGGCTAGAGTCGGAGTCACCTAGTGCAG” was tested, and the binding signal was 8350 fluorescence intensity (a.u.). For “ATTACTTACCCCGTTCTATACTTCAACTTTCTCGTTTTCCCGGAGTCACCTAGTGCAG”, the binding signal was 9490 fluorescence intensity (a.u.). In the case of “TCCCTTGTCGAGAGCTTGTCAAATTTCTGCAGATCTGTTTCGGAGTCACCTAGTGCAG”, the binding signal is reported as 9480 fluorescence intensity (a.u.). “GGCTGGGCTTTTTGGGCTTTCTTTGATCTATATTTTGAGACGGAGTCACCTAGTGCAG” was tested, and the binding signal was 18200 fluorescence intensity (a.u.). In the case of “TTCCGATTCCCATCTCTCAGCCAGTTTTCTTGGAGAAGAACGGAGTCACCTAGTGCAG”, the binding signal is reported as 8140 fluorescence intensity (a.u.). “GCCTCCATCGATGGATCAGAATTCAGATACAACTCACTTCCGGAGTCACCTAGTGCAG” was tested, and the binding signal was 8250 fluorescence intensity (a.u.). “GGGTTTTTCTCCCCGCCTCGCTGCTTCGCCTCTCGTTCCCCGGAGTCACCTAGTGCAG” was tested, and the binding signal was 10700 fluorescence intensity (a.u.). With “AATAACAGTAGCCACTTGCCCCACACCTCTGCCGGCGGTTCGGAGTCACCTAGTGCAG” the binding signal was 9400 fluorescence intensity (a.u.). In the case of “CTTACCTGATGATATATTTGTCCGTCACATTGCAAAATTCCGGAGTCACCTAGTGCAG”, the binding signal is reported as 11000 fluorescence intensity (a.u.). “ATTGAGGTTATTCTTTTTCCTACCACAATTTTACTTCAATCGGAGTCACCTAGTGCAG” was tested, and the binding signal was 8440 fluorescence intensity (a.u.). “CTCTCTCTCTCTCTCTCTCTCTCTCTTTCTCTCTCTCTCTCGGAGTCACCTAGTGCAG” was tested, and the binding signal was 13700 fluorescence intensity (a.u.). With “GAGGGGTGTTCGATACCTGGTTTTGAAGTTTGAGGTTTGACGGAGTCACCTAGTGCAG” the binding signal was 10700 fluorescence intensity (a.u.). “CTGTGTAATTAGTGTTTTATATTATCTATATTTAATATTTCGGAGTCACCTAGTGCAG” was tested, and the binding signal was 8850 fluorescence intensity (a.u.). With “GCGCAGTTGGTTGGGTCGTGCGGCTACTTGGCTTGGTTGGCGGAGTCACCTAGTGCAG” the binding signal was 9210 fluorescence intensity (a.u.). In the case of “CACGCCCGCCGCGCGGCCCACCTCCGCCTTTATGACCGATCGGAGTCACCTAGTGCAG”, the binding signal is reported as 9890 fluorescence intensity (a.u.). With “CAAACATGTGCTAAAAAGTCAACGGTGTCAACCATTTTGACGGAGTCACCTAGTGCAG” the binding signal was 11600 fluorescence intensity (a.u.). For “CTCTCCGGTGCGCCGCATCACGAATCGCCCCGAAATCGCCCGGAGTCACCTAGTGCAG”, the binding signal was 8820 fluorescence intensity (a.u.). For “TTCCTTTGCTTCATGCTTGCATCTGTGTTTCTCTGTCAATCGGAGTCACCTAGTGCAG”, the binding signal was 11800 fluorescence intensity (a.u.). With “CACCATCCATCCATCCATCCATCGTCTCATCCTACCACAGCGGAGTCACCTAGTGCAG” the binding signal was 9390 fluorescence intensity (a.u.). With “CGGCCTGAGGACTAACACCACCTTTGCTCTATCTCGTTTTCGGAGTCACCTAGTGCAG” the binding signal was 9520 fluorescence intensity (a.u.). For “TTTTGTTGTGTTTGTTCATAGTGGGATGATTCGAAATCTCCGGAGTCACCTAGTGCAG”, the binding signal was 8960 fluorescence intensity (a.u.). With “TTTCATCTCTTCGCAAACCAGCCTTTTTTCCTTTGTCTTTCGGAGTCACCTAGTGCAG” the binding signal was 12000 fluorescence intensity (a.u.). With “TTCTTACTTCTTACCGTTTGGAGTGGGCTTACCGCCACCCCGGAGTCACCTAGTGCAG” the binding signal was 9290 fluorescence intensity (a.u.). In the case of “CTCCTGCTTTGCTCGTATTCTTTTTCTATATAGTATATACCGGAGTCACCTAGTGCAG”, the binding signal is reported as 8250 fluorescence intensity (a.u.).
